The results in this text go back to paper PMC12772503.

Protein sequences, listed by entry. Tags and fused reporters are not part of them. Lines headed by an entry give the natural chain unless they say otherwise; changes in a name come on top.
UniProt O18333: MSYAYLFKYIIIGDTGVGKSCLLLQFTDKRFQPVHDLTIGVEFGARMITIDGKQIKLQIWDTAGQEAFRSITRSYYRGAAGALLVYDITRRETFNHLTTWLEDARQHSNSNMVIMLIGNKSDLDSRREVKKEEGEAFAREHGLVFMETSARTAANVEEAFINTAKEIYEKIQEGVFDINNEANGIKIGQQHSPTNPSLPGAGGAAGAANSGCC

For test [1], the target named is myc-tagged RUFY (Drosophila). Kind of test: co-IP; lysates (1.0 mg/ml) of transfected HEK293 cells on Pierce anti-c-Myc magnetic beads, 2 h, 4°C; 20 mM HEPES pH 7.4, 130 mM NaCl, 2 mM MgCl2, 0.1% saponin, 60 uM GppNHp; washes with 0.25% then 0.1% saponin; eluted by heating in SDS-PAGE loading buffer; Western blot. In general terms: In western blotting, separated proteins are transferred to a membrane and probed.

In test [2] the target is HA-tagged RUFY (Drosophila). In words: co-IP; lysates (1.0 mg/ml) of transfected HEK293 cells on Pierce anti-HA magnetic beads, 2 h, 4°C; 20 mM HEPES pH 7.4, 130 mM NaCl, 2 mM MgCl2, 0.1% saponin; 60 uM GppNHp with Rab2(wt) and Rab2[Q65L] but not Rab2[S20N]; eluted with 100 mM NaOH or HA peptide; Western blot; in Fig. S2 E cells treated with 2 uM MLi-2 for 2 h or co-transfected with LRRK2^G2019S.

These are yes or no findings as the source states them, for the method shown. Binding seen in cells or lysates may run through a third protein. Binding can be weak; no strength is given.

On to “HA-Rab2^Q65L (from UniProt O18333 1-213)”, for which, in test [1], the binding entry was “binds weakly”.
Consider “myc-Rab2^Q65L (from UniProt O18333 1-213)”, for which the binding entry in test [2] is given as “binds”.
